The assay deals with PC-3. Briefly: Growth inhibition of human PC3 cells incubated for 72 hrs by MTT assay. The format is functional, cell-based. Conditions: PC-3, 72 h.

For `COc1cc2c(c(OC)c1OC)-c1ccc(OC)c(=O)cc1[C@@H](NC(C)=O)CC2` [COLCHICINE], the midpoint of inhibition, the IC50, lay at 15 nM.

Values taken from ChEMBL document CHEMBL4428037 (J Med Chem, 2016).
